# The supplement of paper PMC12764529
# ± gives the half width of the 95% confidence interval. For many entries, trypsin and chymotrypsin gave values far apart.
# What was measured:
# [1] = folding stability dG unfold from trypsin proteolysis; higher = more stable
# How it was run: (§1)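 Bayesian fitting of sequencing counts gave K50 for each design. Unfolding free energy followed by setting this against a sequence-predicted unfolded-state K50 and a shared folded-state K50, either per protease or with trypsin and chymotrypsin combined. The designs, under 80 residues and lacking cysteine, were digested in a PA-tagged cDNA display format at 11 threefold-diluted protease concentrations and without protease, and only those with AlphaFold2 dimer inter-PAE above 15 were kept.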
# [2] = folding stability dG unfold (combined trypsin and chymotrypsin); higher = more stable
# How it was run: as §1
# [3] = folding stability dG unfold from chymotrypsin proteolysis; higher = more stable
# How it was run: as §1
Sequence,folding stability dG unfold [1],folding stability dG unfold [2],folding stability dG unfold [3]
SAGGKLPKLPPGQIEIMDFQIEPDPDGRYKMSFMITITAPDNGKKVVVMLEMWMPPDGEMKTGIGIMPSAGG [r13_263_TrROS],1.9 ± 0.14 kcal/mol,2.65 ± 0.34 kcal/mol,2.85 ± 0.15 kcal/mol
SAGGSAGGSIEELAKKTNIIEVKVTEFPNPKFKKAFIVYKNPKENKYKKGIYIFYDKKDGKLESAGGSAGGS [r12_133_TrMRF],-0.185 ± 0.35 kcal/mol,0.313 ± 0.23 kcal/mol,0.544 ± 0.43 kcal/mol
SMKIEITPNGITITLSKEEIEKLIEELKKAGYEVKITDIEYDEETDEITVKIEIRPKPPAKEKVVLPEKKSA [r9_448_TrROS_Hall],-1.26 ± 0.43 kcal/mol,1.23 ± 0.13 kcal/mol,1.72 ± 0.095 kcal/mol
SAGGSAGGSAGGSVIEVKDPNGKKYIIIKTPDPNVYPVTVIPPDGTTTVTPVSDYSKLLSSAGGSAGGSAGG [r7_769_JUSTAS],-0.893 ± 0.4 kcal/mol,-0.527 ± 0.42 kcal/mol,-0.464 ± 0.56 kcal/mol
SAKMVVLKAYFKGDGDEIKEIADAIDFPYTIEKIPDYPDYYIATFVFPTEEKAPEWEKALKEKGYIVEGSAG [r14_745_TrMRF],1.88 ± 0.04 kcal/mol,2.25 ± 0.049 kcal/mol,2.48 ± 0.037 kcal/mol
SAGGSIELPLEEGSTAEVELELRVPFYRLDANGRPVAPEERTLRIRARFTRLPDGRVLVEVEVEVESAGGSA [r2_154_TrMRF],4.46 ± 0.17 kcal/mol,4.98 ± 0.13 kcal/mol,5.24 ± 0.1 kcal/mol
SAGGKIIPITFIVPPEVEPEKAAKEIADEIAAFLKAKTDKKIEVKVESVEPLPNGDYLVRVLVIVEESAGGS [r8_156_TrMRF],3.3 ± 0.18 kcal/mol,5.2 ± 0.18 kcal/mol,5.44 ± 0.3 kcal/mol
SAGGLPGLSAEELARRLAERLREALAAAGYTVEIELTVEITVTDEDGRTRTFTFTLRIRVEPPPPPPSAGGS [r16_550_TrROS_Hall],4.05 ± 0.069 kcal/mol,4.8 ± 0.12 kcal/mol,5.15 ± 0.074 kcal/mol
SAGGSAKTITVILSPEEVEKLKELGVEIPENVPLAVAEIEILPDGGIKIKVYLFNIPPVKPGELKKSAGGSA [r15_322_TrMRF],0.832 ± 0.03 kcal/mol,2.55 ± 0.12 kcal/mol,3.11 ± 0.071 kcal/mol
SAGGSAGGSAGKKKKVKKIEIYLFNKDGKLIAKAEIEEKDGKLIIKIEVYKTKDGKEIPISAGGSAGGSAGG [r11_874_TrROS_Hall],2.15 ± 0.12 kcal/mol,4.24 ± 0.27 kcal/mol,4.68 ± 0.12 kcal/mol
SSIKIEKLEDDTYLLDIQLENNPDVTIRVRFSLNPDGTPYYEVEVLNPDGSKKRIRFPYGNIEDVLKALASA [r9_310_TrMRF],2.45 ± 0.075 kcal/mol,4.14 ± 0.12 kcal/mol,4.6 ± 0.081 kcal/mol
SASESAVVEEEYTIDVTTVTPPGTPTTEPVRLTITRLPPNTVEVTLTAPDGKTVETRVIPLSVSLEELLSAG [r14_559_JUSTAS],0.413 ± 0.14 kcal/mol,0.493 ± 0.16 kcal/mol,0.134 ± 0.3 kcal/mol
SAGGKLLEELNVEKVEVVEVKEFSLPPLPLLVLLPTVTVTFKDGSKVKFKVLFLYDPSNPKPIVVAGSAGGS [r8_422_TrMRF],2.42 ± 0.1 kcal/mol,3.07 ± 0.16 kcal/mol,3.64 ± 0.048 kcal/mol
SAGGNYFEITLKLERKFYRYRRDDPNGDPKPERYTVERELTIRVKMPPGFDSPEDMINWIKKALKKLSAGGS [r16_359_TrROS],2.64 ± 0.11 kcal/mol,3.72 ± 0.22 kcal/mol,4.67 ± 0.15 kcal/mol
SAEKIKELLKKLGFEITKIEVVKDENGKEYIRITIKVKKVEYDPKTKEKKVKTETLTITLSKEELLKLLSAG [r14_16_TrROS_Hall],3.12 ± 0.079 kcal/mol,5.16 ± 0.26 kcal/mol,5.33 ± 0.12 kcal/mol
SAGGSAGGSAGGPEGAVYRLGPDVVLVRLDARAYPVTAPNADGSTYEFTVLEVRVEVFPPSAGGSAGGSAGG [r7_764_TrMRF],0.621 ± 0.068 kcal/mol,3.02 ± 0.15 kcal/mol,3.743 ± 0.033 kcal/mol
SARRTLTLELELEFEFEGLGLRVRVRVELRLELVDGELRLELRVEIEVEPLPPPPPPLTPEQLRELARRSAG [r14_435_TrROS_Hall],0.713 ± 0.2 kcal/mol,2.51 ± 0.38 kcal/mol,2.87 ± 0.13 kcal/mol
SAGKVYRIVVENEATGKKVTIEIFEDGTVKVEVDGKKIEIKLSEEDIEKIAELAKKLAPPGAKVKIEPVSAG [r5_791_TrROS_Hall],1.24 ± 0.073 kcal/mol,3.17 ± 0.22 kcal/mol,3.79 ± 0.14 kcal/mol
SAGGSAGMTPVSEAVVPGPNVTTLTTYRDPSSSALITPVTTTPPDGVPVTTTTLDLGSSTVTLSTTSAGGSA [r15_993_JUSTAS],1.06 ± 0.053 kcal/mol,0.97 ± 0.082 kcal/mol,0.583 ± 0.21 kcal/mol
SAGGSAFRIKIEGPDGVTVTIPMKSPEDIAEQLKKFFGYRITDVKWKRDENGHNYIEIRIRAPPGASAGGSA [r15_447_TrROS],3.08 ± 0.3 kcal/mol,3.82 ± 0.68 kcal/mol,5.13 ± 0.24 kcal/mol
SAGGSAGGSMTIEEIKKLAEELGIEKVEIEKVKDGYYKIKIYNKKTGKKIEIIIKVNKDGKIVSAGGSAGGS [r12_170_TrROS_Hall],2.27 ± 0.17 kcal/mol,3.61 ± 0.26 kcal/mol,3.9 ± 0.091 kcal/mol

Sequence,folding stability dG unfold [1],folding stability dG unfold [2],folding stability dG unfold [3]
SAGGSAETVTLTLVDEETGLVVKLTVTKNEDGSYTVTIEVYKNGKLVEKKTLTVKKEDMTLEELLSSAGGSA [r15_147_TrROS_Hall],2.89 ± 0.27 kcal/mol,4.73 ± 0.27 kcal/mol,5.24 ± 0.29 kcal/mol
SAGLEIIREIARDLGLPPGHEIEKVDINVEHYPDRIRADIMITITNPKNGGRWQIQIEIEFKLPDPDQKSAG [r5_94_TrROS],1.81 ± 0.075 kcal/mol,4.08 ± 0.24 kcal/mol,4.84 ± 0.36 kcal/mol
SMKYELKVEVEVEVKPDPVSGKVTVEFKVKVELYAVDPDGNKTKLSESEATLTVEADLEEAVELAELILDSA [r9_642_TrMRF],1.97 ± 0.14 kcal/mol,4.84 ± 0.56 kcal/mol,5.18 ± 0.52 kcal/mol
SAGGSAGGSAGGSSSSKTVSTTDTTVPITTTTTPGGSPTVSTTRTDPTSSGPVTTTTTAPSAGGSAGGSAGG [r11_305_JUSTAS],-0.758 ± 0.079 kcal/mol,0.826 ± 0.12 kcal/mol,1.32 ± 0.039 kcal/mol
SELRDMTAEELAKLLAEELGIEEVKVTVEREGDTLTITIEVRDKETGETYTLRLRVTRRPDGSLLIEVERSA [r9_1042_TrROS_Hall],2.91 ± 0.083 kcal/mol,4.85 ± 0.071 kcal/mol,5.25 ± 0.059 kcal/mol
SAGGSAGGSAGGSHHPPGSSITVTVTVETVSETTLTFPGGVPVTETTTTTTTVPVTIQTSAGGSAGGSAGGS [r4_418_JUSTAS],2.48 ± 0.16 kcal/mol,1.57 ± 0.12 kcal/mol,-0.658 ± 0.15 kcal/mol
SAGGMTVKRFNSEEEAEELAKELEEAGYEVEIKPTPDYYLVYVKPPPNPPLSPEAIRIAREKPGILSESAGG [r13_8_JUSTAS],-0.217 ± 0.15 kcal/mol,2.01 ± 0.11 kcal/mol,2.467 ± 0.018 kcal/mol
SAGGSAGGSAGGKPHEIKITSFEMFFLPDGWIIMRMTFTFPNPNTITMLMIFPLPDGAPSAGGSAGGSAGGS [r10_1206_TrROS],1.24 ± 0.14 kcal/mol,4.37 ± 0.19 kcal/mol,4.76 ± 0.12 kcal/mol
SAGGSKAKILEINPDGEITIVVEFEPGKYIVIPVHPEFVNNPENIEKLFNFLKKIFESLGFEDIEGSAGGSA [r2_249_TrMRF],1.16 ± 0.034 kcal/mol,3.43 ± 0.16 kcal/mol,3.87 ± 0.1 kcal/mol
SAGGSAGGSAGGPKNLRAPRLPPKPKRFPVARVRVPFIAPHPDSDELYPLELEFTFYLGLSAGGSAGGSAGG [r7_64_TrMRF],0.465 ± 0.12 kcal/mol,1.92 ± 0.095 kcal/mol,2.72 ± 0.051 kcal/mol
SAGGSKIKLPEGMKAEIEVVEVKVKYKYDKNGKPVKKVEEEKTIKVIKIKITDKNGKKFEFTFLLKSAGGSA [r2_218_TrROS_Hall],1.48 ± 0.096 kcal/mol,3.12 ± 0.24 kcal/mol,3.56 ± 0.11 kcal/mol
SMPVQVTTDPSTGTVTITLPASTVDPETLREVLEALPADATTVTVNVDDPPVAEQVREIAAELGLPVTLTSA [r9_919_JUSTAS],1.49 ± 0.051 kcal/mol,0.783 ± 0.074 kcal/mol,-0.819 ± 0.16 kcal/mol
SAGGSAGGSMKYKITKVEEVTNEDGSKYLRVEIELTDKDGKKHKFTFVFKTKEDLEKAKIKLPSAGGSAGGS [r20_130_TrROS_Hall],1.9 ± 0.11 kcal/mol,4.66 ± 0.14 kcal/mol,4.92 ± 0.14 kcal/mol
SAGMRVVLTLPLPDLVALAERLGYAPEDMTLEEFAERLEELLPGARVEATFDPETGEVTLVLELPPELGSAG [r5_264_TrMRF],0.892 ± 0.08 kcal/mol,2.99 ± 0.1 kcal/mol,3.53 ± 0.074 kcal/mol
SAGGSAGGSAGNIEIFFDPDGTLRIVFRTPDWVVVIEYKIDPGGNEIEPRDVEVVPPGAISAGGSAGGSAGG [r11_844_TrROS],1.66 ± 0.038 kcal/mol,3.5 ± 0.24 kcal/mol,4.04 ± 0.1 kcal/mol
SAGGMTVKLVAEFTLPNGAKVRVFEVTDADGSTHTVVEIEFRAPPPPEVELSDEELERRRKEEEARKSAGGS [r16_8_TrROS_Hall],1.97 ± 0.047 kcal/mol,3.58 ± 0.068 kcal/mol,4.07 ± 0.046 kcal/mol
SAGGSAGGSAGGSNWVMVTVEFEMTVYKMDPNGGWEPETMTIKVTAMLPPGQPLEEFIDSAGGSAGGSAGGS [r4_126_TrROS],2.29 ± 0.14 kcal/mol,4.32 ± 0.42 kcal/mol,4.77 ± 0.19 kcal/mol
SAGGSAGGSAGGSMIVLRMSADEIKKLLPPGAKIKKIEYDEETDEVYVIIEFDKDGKIISAGGSAGGSAGGS [r4_435_TrROS_Hall],1.53 ± 0.028 kcal/mol,1.49 ± 0.069 kcal/mol,1.32 ± 0.092 kcal/mol
SAGGEVSVEVDPENGVVTVTATFYAPDGTLVGSLSFSFPVGEGILYIADVKYNPVEGKVEVVVKPLLGGSAG [r5_34_TrMRF],2.99 ± 0.18 kcal/mol,5.17 ± 0.34 kcal/mol,5.37 ± 0.16 kcal/mol
SAGGSAGGSAGGKKKVKKKTFELELLVRDKETKEWYKIKMRFTVNENGELKAELEIEKISAGGSAGGSAGGS [r10_617_TrROS_Hall],2.49 ± 0.11 kcal/mol,4.37 ± 0.2 kcal/mol,4.62 ± 0.14 kcal/mol
SDADIKVQVFGNFIMIQIYPGAKIKIKIKMPGKKHEHEVKVPPGEPTTIMIPLPPGMPPDWKIEDIEIKGSA [r9_1152_TrROS],1.27 ± 0.1 kcal/mol,3 ± 0.62 kcal/mol,4.43 ± 0.33 kcal/mol

# Single values from the results shown:
# SAGMRVVLTLPLPDLVALAERLGYAPEDMTLEEFAERLEELLPGARVEATFDPETGEVTLVLELPPELGSAG [r5_264_TrMRF] – folding stability dG unfold [3]: 3.53 ± 0.074 kcal/mol
# SAGGSAGMTPVSEAVVPGPNVTTLTTYRDPSSSALITPVTTTPPDGVPVTTTTLDLGSSTVTLSTTSAGGSA [r15_993_JUSTAS] – folding stability dG unfold [3]: 0.583 ± 0.21 kcal/mol
